From publication PMC6318265, “Structure of BAI1/ELMO2 complex reveals an action mechanism of adhesion GPCRs via ELMO family scaffolds” (Nature Communications, 2019)

Protein sequences, listed by entry. Tags and fused reporters are not part of them. Lines headed by an entry give the natural chain unless they say otherwise; changes in a name come on top.
UniProt O60242: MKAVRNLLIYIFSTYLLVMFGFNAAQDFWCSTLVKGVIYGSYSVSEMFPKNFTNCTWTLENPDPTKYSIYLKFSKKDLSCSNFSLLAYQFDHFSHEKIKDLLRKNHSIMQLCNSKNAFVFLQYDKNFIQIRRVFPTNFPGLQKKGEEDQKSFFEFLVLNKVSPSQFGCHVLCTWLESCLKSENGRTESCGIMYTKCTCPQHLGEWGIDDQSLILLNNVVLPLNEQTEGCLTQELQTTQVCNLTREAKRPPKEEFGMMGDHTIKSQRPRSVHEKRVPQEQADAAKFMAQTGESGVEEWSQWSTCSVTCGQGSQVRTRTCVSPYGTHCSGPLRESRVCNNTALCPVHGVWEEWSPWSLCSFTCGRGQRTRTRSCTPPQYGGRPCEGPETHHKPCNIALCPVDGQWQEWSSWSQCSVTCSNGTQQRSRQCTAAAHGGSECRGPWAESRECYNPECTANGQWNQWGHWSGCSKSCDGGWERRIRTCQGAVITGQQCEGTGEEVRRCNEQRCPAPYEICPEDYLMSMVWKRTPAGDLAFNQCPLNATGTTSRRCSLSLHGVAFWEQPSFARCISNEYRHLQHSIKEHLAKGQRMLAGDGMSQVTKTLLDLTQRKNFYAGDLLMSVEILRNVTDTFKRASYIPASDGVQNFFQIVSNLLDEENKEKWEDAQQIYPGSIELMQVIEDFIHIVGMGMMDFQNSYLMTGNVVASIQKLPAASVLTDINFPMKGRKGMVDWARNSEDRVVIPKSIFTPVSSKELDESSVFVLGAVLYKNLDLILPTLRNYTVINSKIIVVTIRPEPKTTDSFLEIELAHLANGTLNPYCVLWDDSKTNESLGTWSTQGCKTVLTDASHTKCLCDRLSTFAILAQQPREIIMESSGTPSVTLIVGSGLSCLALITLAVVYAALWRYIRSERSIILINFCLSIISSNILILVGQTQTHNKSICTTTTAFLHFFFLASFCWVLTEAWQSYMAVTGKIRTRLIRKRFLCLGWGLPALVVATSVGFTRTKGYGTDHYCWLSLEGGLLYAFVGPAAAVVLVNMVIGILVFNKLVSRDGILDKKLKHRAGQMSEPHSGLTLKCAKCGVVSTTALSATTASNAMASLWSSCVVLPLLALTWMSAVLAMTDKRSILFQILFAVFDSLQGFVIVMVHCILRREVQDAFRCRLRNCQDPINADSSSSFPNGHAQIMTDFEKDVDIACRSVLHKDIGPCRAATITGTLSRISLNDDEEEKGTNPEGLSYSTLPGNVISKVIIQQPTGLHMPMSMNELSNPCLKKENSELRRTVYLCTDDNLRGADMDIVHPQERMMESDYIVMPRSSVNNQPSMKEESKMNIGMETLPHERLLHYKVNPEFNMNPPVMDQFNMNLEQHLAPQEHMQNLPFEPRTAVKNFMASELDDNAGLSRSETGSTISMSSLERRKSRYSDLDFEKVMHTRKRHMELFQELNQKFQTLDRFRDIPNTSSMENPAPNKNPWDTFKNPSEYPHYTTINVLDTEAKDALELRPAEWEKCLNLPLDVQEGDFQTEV

T1: GST-tagged ELMO2-RAE (human) (UniProt Q96JJ3)
T1 sequence: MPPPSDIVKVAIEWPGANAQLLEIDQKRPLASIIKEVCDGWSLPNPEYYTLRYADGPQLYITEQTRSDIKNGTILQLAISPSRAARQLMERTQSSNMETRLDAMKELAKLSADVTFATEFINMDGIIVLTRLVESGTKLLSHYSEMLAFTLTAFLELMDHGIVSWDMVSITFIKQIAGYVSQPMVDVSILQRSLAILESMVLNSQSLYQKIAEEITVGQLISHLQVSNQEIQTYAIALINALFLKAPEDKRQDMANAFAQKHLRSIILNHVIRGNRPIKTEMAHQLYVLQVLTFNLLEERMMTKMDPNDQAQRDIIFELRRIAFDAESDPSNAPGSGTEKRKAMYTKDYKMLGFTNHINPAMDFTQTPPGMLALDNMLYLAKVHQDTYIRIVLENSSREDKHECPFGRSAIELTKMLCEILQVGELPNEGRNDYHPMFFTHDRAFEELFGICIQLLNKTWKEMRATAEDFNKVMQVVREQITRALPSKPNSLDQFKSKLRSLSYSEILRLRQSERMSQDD


Experiments:
[1] = biological target: T1, GST-tagged ELMO2-RAE (human); test: pull-down; GST-tagged ELMO2 proteins on GSH-sepharose beads, lysates of HEK293T cells overexpressing GFP-tagged GPR128-CT; anti-GFP western blot; only the target purified
BAI3 ELMO-binding domain = BAI3 ELMO-binding domain (UniProt O60242); test: pull-down; GST-tagged BAI proteins pre-loaded on GSH-sepharose 4B beads, incubated with lysates of HEK293T cells overexpressing Flag-tagged ELMO2 proteins; lysis buffer 50 mM HEPES pH 7.4, 150 mM NaCl, 1 mM EGTA, 10% glycerol, 1% Triton; 4 °C, 1 h; anti-Flag western blot; only the target purified

binding [1] | binding (BAI3 ELMO-binding domain) | Molecule
binds |  | GFP-tagged GPR128 cytosolic tail (aa 717-785) (domain or fragment)
 | binds | Flag-tagged RBD-ARR-ELMO tandem of ELMO2 (aa 1-520) (domain or fragment, UniProt Q96JJ3 1-520) MPPPSDIVKVAIEWPGANAQLLEIDQKRPLASIIKEVCDGWSLPNPEYYTLRYADGPQLYITEQTRSDIKNGTILQLAISPSRAARQLMERTQSSNMETRLDAMKELAKLSADVTFATEFINMDGIIVLTRLVESGTKLLSHYSEMLAFTLTAFLELMDHGIVSWDMVSITFIKQIAGYVSQPMVDVSILQRSLAILESMVLNSQSLYQKIAEEITVGQLISHLQVSNQEIQTYAIALINALFLKAPEDKRQDMANAFAQKHLRSIILNHVIRGNRPIKTEMAHQLYVLQVLTFNLLEERMMTKMDPNDQAQRDIIFELRRIAFDAESDPSNAPGSGTEKRKAMYTKDYKMLGFTNHINPAMDFTQTPPGMLALDNMLYLAKVHQDTYIRIVLENSSREDKHECPFGRSAIELTKMLCEILQVGELPNEGRNDYHPMFFTHDRAFEELFGICIQLLNKTWKEMRATAEDFNKVMQVVREQITRALPSKPNSLDQFKSKLRSLSYSEILRLRQSERMSQDD

No constants are given. Whether binding was seen depends on the method and setting. In cells and extracts the contact can be indirect. Binding can be weak; no strength is given. Sequences can lack the tags named with a protein.
